PubChem BioAssay AID504808, Drosophila RNAi Screening Center, 2011

Aim: 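Chromatin factors that keep E2F targets switched off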 (primary screen)
System: Drosophila S2 cells
Reagents: long dsRNA against Drosophila genes
Measurement: 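Firefly luciferase driven by E2F sites, normalised to Renilla luciferase on the same minimal promoter, measured by plate reader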
Direction: E2F firefly: higher = more E2F reporter activity; Renilla normaliser: higher = more normaliser reporter signal
Hit rule: 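Called active if the normalised E2F reporter went up by over 50%; the cutoff is arbitrary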
The screen tested about 21,000 reagents; below is a random part of those with a known target gene and a result. Over the whole deposit, 18 (0.084%) are marked active. 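Raw counts without plate normalisation, one of two replicates; the ratio scores behind the calls were not deposited.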 A plus sign joins genes that one reagent is predicted to hit. Not given: the amount of reagent, the time to read-out.

no.	Gene	amplicon	E2F firefly, rep 1	Renilla normaliser, rep 1	Outcome
1	CG12814	DRSC14552	63600	3456	inactive
2	CG12814	DRSC14553	1.43e5	6569	inactive
3	Hrb98DE	DRSC16709	1738	920	inactive
4	Gug	DRSC11179	84483	3671	inactive
5	L (retired record)	DRSC05966	94495	4391	inactive
6	L (retired record)	DRSC05967	77076	4226	inactive
7	CG15708	DRSC06579	1.35e5	5147	inactive
8	CR31824	DRSC01517	1.23e5	6778	inactive
9	vkg	DRSC03632	1.37e5	4760	inactive
10	CG15605	DRSC06558	1.65e5	5386	inactive
11	Lk	DRSC10022	1.59e5	8012	inactive
12	ena	DRSC05779	1.61e5	4258	inactive
13	ena	DRSC07610	72202	3137	inactive
14	CG6650	DRSC10685	86095	3420	inactive
15	CG12081	DRSC17802	7983	848	inactive
16	Acp1	DRSC01854	1.50e5	4902	inactive
17	Mal-B2	DRSC02417	51789	3643	inactive
18	CG11975	DRSC14452	58509	2681	inactive
19	CstF64	DRSC16616	1.33e5	7208	inactive
20	DIP-eta	DRSC02342	1.60e5	4832	inactive
21	CG14762	DRSC05073	1.33e5	5385	inactive
22	CG14762	DRSC06496	1.40e5	5173	inactive
23	CG17029	DRSC10240	1.59e5	7411	inactive
24	Phs	DRSC10827	71133	3023	inactive
25	ytr	DRSC04306	84051	3764	inactive
26	Dpy-30L2	DRSC08205	98739	4175	inactive
27	Surf4	DRSC16875	1.02e5	5050	inactive
28	AANATL2	DRSC03227	1.63e5	5351	inactive
29	Ankle2	DRSC20105	1.80e5	5241	inactive
30	Ankle2	DRSC20106	1.57e5	7181	inactive
31	ND-MLRQ	DRSC11913	95309	3792	inactive
32	wac	DRSC08349	96822	3958	inactive
33	Tim9a	DRSC19753	1.00e5	5605	inactive
34	fra	DRSC07621	96622	4038	inactive
35	Pka-R2	DRSC07509	1.55e5	5110	inactive
36	Obp85a	DRSC14362	1.42e5	6964	inactive
37	PolD1	DRSC11138	1.49e5	6655	inactive
38	Cals	DRSC17196	2101	972	inactive
39	CG1889 + CG43386	DRSC17979	1.48e5	6144	inactive
40	LysE	DRSC08675	1.05e5	4306	inactive
41	CG14125	DRSC10129	1.22e5	6718	inactive
42	CG11131	DRSC11636	1.47e5	7182	inactive
43	Rchy1	DRSC02542	1.45e5	4692	inactive
44	Hr3	DRSC06118	1.21e5	4369	inactive
45	Hr3	DRSC07441	2737	186	inactive
46	pippin	DRSC04489	84216	3584	inactive
47	Arpc1	DRSC03438	91456	3821	inactive
48	CG9555	DRSC03264	1.54e5	5218	inactive
49	dcma	DRSC00246	1.38e5	5802	inactive
50	dcma	DRSC00338	1.49e5	5450	inactive
51	CG18004	DRSC06705	2802	199	inactive
52	Cbp53E	DRSC07356	78900	3703	inactive
53	Cyp317a1	DRSC07366	1.02e5	3752	inactive
54	CG5116	DRSC15720	52212	3455	inactive
55	CG12541	DRSC17483	83838	2565	inactive
56	CG12541	DRSC17839	1.25e5	5797	inactive
57	CG12917	DRSC06231	1.43e5	4699	inactive
58	CG4313	DRSC18514	1942	984	inactive
59	JhI-21	DRSC02161	73561	3428	inactive
60	CG17019	DRSC06642	3022	191	inactive
61	CG13144	DRSC02241	1.61e5	5460	inactive
62	Pis	DRSC20178	1.49e5	5958	inactive
63	Dh31	DRSC02196	1.46e5	5001	inactive
64	sm	DRSC05795	1.81e5	6369	inactive
65	sm	DRSC07686	66108	3056	inactive
66	CG8945	DRSC20129	1.58e5	7301	inactive
67	CG8945	DRSC20130	1.62e5	7405	inactive
68	ced-6	DRSC07591	1.58e5	4804	inactive
69	CG6337	DRSC06977	98239	4288	inactive
70	CG32733 (retired record)	DRSC17481	71780	2309	inactive
71	seq	DRSC06863	1.06e5	3948	inactive
72	Ndg	DRSC06223	3190	284	inactive
73	CG34166	DRSC02482	55828	3288	inactive
74	Obp59a	DRSC04160	97758	4365	inactive
75	Gga	DRSC18260	8194	732	inactive
76	CG1387	DRSC17904	7528	700	inactive
77	CG9826	DRSC04570	1.05e5	4042	inactive
78	CG15930	DRSC18107	81981	5734	inactive
79	CG1544	DRSC15036	1918	1048	inactive
80	CG31957	DRSC00207	1.35e5	5842	inactive
81	Cyp28c1	DRSC20236	49510	4577	inactive
82	metro	DRSC06341	2994	206	inactive
83	metro	DRSC06725	94227	3824	inactive
84	stas	DRSC20104	1.48e5	5918	inactive

Sorted by “Renilla normaliser, rep 1” (highest first): 7 of the entries above.
Gene	amplicon	E2F firefly, rep 1	Renilla normaliser, rep 1	Outcome
CG17029	DRSC10240	1.59e5	7411	inactive
CG14762	DRSC05073	1.33e5	5385	inactive
CG14762	DRSC06496	1.40e5	5173	inactive
Surf4	DRSC16875	1.02e5	5050	inactive
Dpy-30L2	DRSC08205	98739	4175	inactive
ytr	DRSC04306	84051	3764	inactive
Phs	DRSC10827	71133	3023	inactive
